Experimental data reported in patent US20190169241A1 (BOARD OF TRUSTEES OF THE UNIVERSITY OF ILLINOIS, published 2019).
Results are given in words; binding and its absence hold for the method and conditions named. Binding seen in cells or lysates may run through a third protein. Some results given as binding are weak or reduced against the parent protein; the word gives no strength.

The chains behind the UniProt entries cited, without tags or fusion partners. Residues count along the entry.
UniProt P35968, residues 20-1356: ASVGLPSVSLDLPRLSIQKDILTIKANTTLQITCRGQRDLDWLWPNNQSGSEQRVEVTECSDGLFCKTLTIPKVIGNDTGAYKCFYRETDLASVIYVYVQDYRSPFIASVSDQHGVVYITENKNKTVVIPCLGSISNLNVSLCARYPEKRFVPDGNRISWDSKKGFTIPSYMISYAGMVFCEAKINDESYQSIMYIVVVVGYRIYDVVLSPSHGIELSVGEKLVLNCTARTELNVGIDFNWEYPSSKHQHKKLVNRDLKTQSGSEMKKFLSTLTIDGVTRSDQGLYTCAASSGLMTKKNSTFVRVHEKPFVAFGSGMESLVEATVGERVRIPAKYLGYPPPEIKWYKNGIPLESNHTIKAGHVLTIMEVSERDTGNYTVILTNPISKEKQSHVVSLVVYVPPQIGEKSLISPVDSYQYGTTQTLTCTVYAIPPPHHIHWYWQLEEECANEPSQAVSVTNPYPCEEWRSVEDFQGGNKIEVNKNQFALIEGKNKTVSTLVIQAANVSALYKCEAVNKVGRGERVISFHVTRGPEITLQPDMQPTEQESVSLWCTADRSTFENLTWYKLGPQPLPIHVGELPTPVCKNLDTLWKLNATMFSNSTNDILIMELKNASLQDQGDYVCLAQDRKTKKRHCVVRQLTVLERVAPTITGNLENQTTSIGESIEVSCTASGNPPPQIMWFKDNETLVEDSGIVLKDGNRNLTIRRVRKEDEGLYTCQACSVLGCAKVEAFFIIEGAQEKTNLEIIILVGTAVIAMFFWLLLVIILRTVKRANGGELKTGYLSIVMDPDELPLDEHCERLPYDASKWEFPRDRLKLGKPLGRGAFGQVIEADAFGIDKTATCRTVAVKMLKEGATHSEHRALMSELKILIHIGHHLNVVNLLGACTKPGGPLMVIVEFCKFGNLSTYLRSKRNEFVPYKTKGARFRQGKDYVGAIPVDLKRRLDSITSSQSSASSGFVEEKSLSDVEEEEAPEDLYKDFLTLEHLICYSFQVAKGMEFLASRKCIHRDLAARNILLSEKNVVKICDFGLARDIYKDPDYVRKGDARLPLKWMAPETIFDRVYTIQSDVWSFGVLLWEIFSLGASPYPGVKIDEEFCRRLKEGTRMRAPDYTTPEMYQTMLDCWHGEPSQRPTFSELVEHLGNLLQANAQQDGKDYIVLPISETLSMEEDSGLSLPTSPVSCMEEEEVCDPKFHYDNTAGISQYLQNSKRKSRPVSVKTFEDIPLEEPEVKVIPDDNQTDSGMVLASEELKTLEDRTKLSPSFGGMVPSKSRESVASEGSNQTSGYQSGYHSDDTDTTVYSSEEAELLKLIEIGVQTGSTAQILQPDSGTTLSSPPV

Each binder was assayed against vascular endothelial growth factor receptor 2 (VEGFR2), endogenous, from HUVEC lysates (human) (UniProt P35968) (assay: pull-down with endogenous VEGFR2 from HUVEC lysates).

| binding | Binder |
| --- | --- |
| binds | RGTPVDERLFLIVRVTVQLS [DUF2C5c] |
| binds | RGTPVDERLFLIVRVTVQLSHP [DUF2C5a] |
| binds | SRGTPVDERLFLIVRVTVQLSHP (peptide, not shown: small tags and cut ends) [DUF2C5 (residues 1238-1260 of KIF13B), recombinant truncated mutant from bacteria] |
| binds | RGTPVDERLFLIVRVTVQ [DUF2C5d] |
| binds | GTPVDERLFLIVRVTVQLSHP [DUF2C5b] |

What follows are binders tested against vascular endothelial growth factor receptor 2 (VEGFR2), endogenous, from HUVEC lysates (human) (UniProt P35968) (assay: pull-down (told again with the network formation assay)).

| binding | Binder |
| --- | --- |
| binds | SRGTPVDERLFLIVRVTVQLSHP (peptide, not shown: small tags and cut ends) [DUF2C5 (residues 1238-1260 of KIF13B), recombinant truncated mutant from bacteria] |
